± gives the standard deviation of the averaged measurements. This is a selection; strong and weak results do not stand in their true shares.
How the values were obtained:
Test in all cases: NP40-soluble protein abundance relative to vehicle (solubility fold change) (ratio); higher = more soluble protein in presence of AMP-PNP
AATF = biological target: T1, AATF (UniProt Q9NY61)
T1 sequence (whole entry): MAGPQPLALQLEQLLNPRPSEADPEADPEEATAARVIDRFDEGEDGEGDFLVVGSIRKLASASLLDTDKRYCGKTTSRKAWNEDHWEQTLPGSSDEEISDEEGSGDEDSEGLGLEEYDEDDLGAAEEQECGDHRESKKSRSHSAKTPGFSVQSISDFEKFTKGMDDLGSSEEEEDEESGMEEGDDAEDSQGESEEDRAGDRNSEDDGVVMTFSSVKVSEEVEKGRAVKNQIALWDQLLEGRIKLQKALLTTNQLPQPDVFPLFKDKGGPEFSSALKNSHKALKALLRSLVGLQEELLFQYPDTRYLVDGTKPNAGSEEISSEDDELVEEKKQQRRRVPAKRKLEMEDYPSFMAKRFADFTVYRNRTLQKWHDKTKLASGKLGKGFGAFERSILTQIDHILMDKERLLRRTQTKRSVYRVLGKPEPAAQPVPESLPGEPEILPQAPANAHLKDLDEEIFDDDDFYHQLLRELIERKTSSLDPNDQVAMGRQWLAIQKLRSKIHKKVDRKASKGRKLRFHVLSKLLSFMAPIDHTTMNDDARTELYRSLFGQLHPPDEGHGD
Outline: (§1)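 Data come from three independent experiments in which Dounce-homogenised Jurkat crude lysate was treated at eight concentrations from 0.1 to 10 mM. Treatment ran 10 min at room temperature and then 3 min at 37 °C, after which 0.8% NP40 and benzonase were added for 60 min at 4 °C before ultracentrifugation. The supernatant underwent TMT labelling and LC-MS/MS, and vsn-normalised intensities were expressed as fold change against the detergent-processed vehicle in each replicate.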

ATXN10 = biological target: T2, ATXN10 (UniProt Q9UBB4)
T2 sequence (whole entry): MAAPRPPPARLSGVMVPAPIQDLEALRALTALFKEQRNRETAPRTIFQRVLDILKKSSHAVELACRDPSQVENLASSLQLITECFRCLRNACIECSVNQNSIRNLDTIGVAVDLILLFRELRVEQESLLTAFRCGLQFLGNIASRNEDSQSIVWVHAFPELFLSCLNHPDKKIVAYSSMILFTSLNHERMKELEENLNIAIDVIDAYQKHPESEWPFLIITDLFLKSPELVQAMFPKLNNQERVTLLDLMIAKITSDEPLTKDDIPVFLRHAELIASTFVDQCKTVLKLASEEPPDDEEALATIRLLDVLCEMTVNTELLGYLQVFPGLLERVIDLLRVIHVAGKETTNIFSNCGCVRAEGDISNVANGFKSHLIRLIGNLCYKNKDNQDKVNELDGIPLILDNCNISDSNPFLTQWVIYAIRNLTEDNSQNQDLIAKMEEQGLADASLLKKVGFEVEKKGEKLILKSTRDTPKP
Outline: as §1

FARSB = biological target: T3, FARSB (UniProt Q9NSD9)
T3 sequence (whole entry): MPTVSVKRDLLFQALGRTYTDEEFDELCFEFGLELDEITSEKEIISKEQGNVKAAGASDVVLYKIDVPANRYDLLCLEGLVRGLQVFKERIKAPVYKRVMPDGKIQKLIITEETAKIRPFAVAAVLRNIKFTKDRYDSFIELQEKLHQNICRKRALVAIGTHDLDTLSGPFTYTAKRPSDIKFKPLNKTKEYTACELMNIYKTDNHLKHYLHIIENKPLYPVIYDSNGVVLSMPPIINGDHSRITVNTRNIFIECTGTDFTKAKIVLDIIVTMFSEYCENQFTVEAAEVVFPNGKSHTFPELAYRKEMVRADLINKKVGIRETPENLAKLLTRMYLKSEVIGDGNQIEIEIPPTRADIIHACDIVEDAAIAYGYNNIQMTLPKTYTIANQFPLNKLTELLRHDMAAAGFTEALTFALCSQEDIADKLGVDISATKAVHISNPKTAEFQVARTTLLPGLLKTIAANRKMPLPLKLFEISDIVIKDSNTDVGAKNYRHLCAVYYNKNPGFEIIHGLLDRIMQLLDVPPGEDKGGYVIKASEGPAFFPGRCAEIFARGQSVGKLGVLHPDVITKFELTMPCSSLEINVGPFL
Outline: as §1

MED17 = biological target: T4, MED17 (UniProt Q9NVC6)
T4 sequence (whole entry): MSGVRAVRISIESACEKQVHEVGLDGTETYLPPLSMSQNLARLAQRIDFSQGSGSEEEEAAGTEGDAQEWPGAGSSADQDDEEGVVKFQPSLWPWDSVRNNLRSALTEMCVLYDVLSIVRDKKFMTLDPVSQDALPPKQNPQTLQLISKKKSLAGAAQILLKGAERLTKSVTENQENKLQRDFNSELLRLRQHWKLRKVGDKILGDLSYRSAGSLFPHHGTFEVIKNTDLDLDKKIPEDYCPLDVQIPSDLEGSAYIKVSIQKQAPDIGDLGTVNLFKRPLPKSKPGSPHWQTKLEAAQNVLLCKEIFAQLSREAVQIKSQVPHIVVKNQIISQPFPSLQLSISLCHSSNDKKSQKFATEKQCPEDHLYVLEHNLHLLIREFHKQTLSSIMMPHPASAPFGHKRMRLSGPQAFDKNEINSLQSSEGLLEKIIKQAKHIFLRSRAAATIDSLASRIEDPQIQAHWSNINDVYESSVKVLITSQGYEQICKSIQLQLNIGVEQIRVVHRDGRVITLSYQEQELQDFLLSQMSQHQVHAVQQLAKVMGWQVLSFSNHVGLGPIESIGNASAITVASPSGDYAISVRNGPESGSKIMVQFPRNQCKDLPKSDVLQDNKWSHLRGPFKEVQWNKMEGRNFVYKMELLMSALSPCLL
Outline: as §1

NKIRAS1 = biological target: T5, NKIRAS1 (UniProt Q9NYS0); conditions: concentration: 1mM
T5 sequence (whole entry): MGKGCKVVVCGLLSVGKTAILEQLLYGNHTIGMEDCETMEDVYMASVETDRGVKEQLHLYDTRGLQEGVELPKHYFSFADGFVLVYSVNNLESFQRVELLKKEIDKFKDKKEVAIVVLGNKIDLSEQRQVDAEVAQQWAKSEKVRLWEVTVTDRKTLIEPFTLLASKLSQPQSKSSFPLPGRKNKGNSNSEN
Outline: as §1

Compound: Nc1ncnc2c1ncn2[C@@H]1O[C@H](COP(=O)(O)OP(=O)(O)NP(=O)(O)O)[C@@H](O)[C@H]1O [adenylyl imidodiphosphate]
- NP40-soluble protein abundance (AATF; concentration: 1mM): 0.954 ± 0.071
- NP40-soluble protein abundance (AATF; concentration: 2mM): 0.985 ± 0.025
- NP40-soluble protein abundance (AATF; concentration: 4mM): 0.952 ± 0.043
- NP40-soluble protein abundance (AATF; concentration: 6mM): 0.958 ± 0.063
- NP40-soluble protein abundance (AATF; concentration: 8mM): 0.936 ± 0.049
- NP40-soluble protein abundance (AATF; concentration: 10mM): 0.991 ± 0.062
- NP40-soluble protein abundance (ATXN10; concentration: 1mM): 0.976 ± 0.018
- NP40-soluble protein abundance (ATXN10; concentration: 2mM): 0.954 ± 0.021
- NP40-soluble protein abundance (ATXN10; concentration: 4mM): 0.943 ± 0.043
- NP40-soluble protein abundance (ATXN10; concentration: 6mM): 0.954 ± 0.049
- NP40-soluble protein abundance (ATXN10; concentration: 8mM): 0.915 ± 0.058
- NP40-soluble protein abundance (ATXN10; concentration: 10mM): 0.916 ± 0.061
- NP40-soluble protein abundance (FARSB; concentration: 1mM): 0.971 ± 0.038
- NP40-soluble protein abundance (FARSB; concentration: 2mM): 0.878 ± 0.12
- NP40-soluble protein abundance (FARSB; concentration: 4mM): 0.96 ± 0.045
- NP40-soluble protein abundance (FARSB; concentration: 6mM): 0.975 ± 0.014
- NP40-soluble protein abundance (FARSB; concentration: 8mM): 0.99 ± 0.041
- NP40-soluble protein abundance (FARSB; concentration: 10mM): 0.955 ± 0.051
- NP40-soluble protein abundance (MED17; concentration: 1mM): 0.947 ± 0.024
- NP40-soluble protein abundance (MED17; concentration: 2mM): 0.914 ± 0.031
- NP40-soluble protein abundance (MED17; concentration: 4mM): 0.968 ± 0.056
- NP40-soluble protein abundance (MED17; concentration: 6mM): 0.99 ± 0.046
- NP40-soluble protein abundance (MED17; concentration: 8mM): 0.985 ± 0.06
- NP40-soluble protein abundance (MED17; concentration: 10mM): 1 ± 0.12
- NP40-soluble protein abundance (NKIRAS1): 1 ± 0.033
